Experimental data from PMC3149646.
These are yes or no findings as the source states them, for the method shown. In cells and extracts the contact can be indirect. Some binding calls cover weakened binding; strength is not graded here. Where a sequence is shown, tags or fusion partners need not be part of it.

Protein sequences, listed by entry. Tags and fused reporters are not part of them.
UniProt P42771: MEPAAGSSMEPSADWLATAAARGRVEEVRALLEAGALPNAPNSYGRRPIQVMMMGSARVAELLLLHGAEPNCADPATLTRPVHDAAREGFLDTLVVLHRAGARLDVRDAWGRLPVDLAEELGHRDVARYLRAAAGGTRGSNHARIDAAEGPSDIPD

Biological target: p16-Myc (pCDEF-Myc-p16) (UniProt P42771)
Assay: co-IP; 293T cells co-transfected with Myc- and Flag-tagged constructs; lysate immunoprecipitated with anti-Myc antibody, Western blot with Flag and Myc antibodies

- binding: binds
B1: TSSK1-Flag (pCDEF-Flag-TSSK1) (enzyme, UniProt Q9BXA7 1-367)
chain: MDDAAVLKRRGYLLGINLGEGSYAKVKSAYSERLKFNVAIKIIDRKKAPADFLEKFLPREIEILAMLNHCSIIKTYEIFETSHGKVYIVMELAVQGDLLELIKTRGALHEDEARKKFHQLSLAIKYCHDLDVVHRDLKCDNLLLDKDFNIKLSDFSFSKRCLRDDSGRMALSKTFCGSPAYAAPEVLQGIPYQPKVYDIWSLGVILYIMVCGSMPYDDSNIKKMLRIQKEHRVNFPRSKHLTGECKDLIYHMLQPDVNRRLHIDEILSHCWMQPKARGSPSVAINKEGESSRGTEPLWTPEPGSDKKSATKLEPEGEAQPQAQPETKPEGTAMQMSRQSEILGFPSKPSTMETEEGPPQQPPETRAQ
